The AC50 is the concentration giving half of the maximal activity seen.

The results in this text go back to PubChem BioAssay AID662 (National Center for Advancing Translational Sciences (NCATS), 2007).

Some of the results follow. The main result of the screen is listed elsewhere. These columns were measured beside it and carry no call. Most of these compounds were active or inconclusive in the main read-out, so they are no random draw. Words in brackets tell the shape of the fitted curve; partial curves, single points and poor fits give uncertain potencies.

The nature of the experiment: Cell signaling CRE-BLA (Fsk stim). The conditions noted are these: CHO CRE-bla reporter (cAMP response element driving beta-lactamase), forskolin EC10, beta-lactamase ratio; measured here: 460 nm blue channel. The essentials: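 AC50 values, positive or negative, reflect shifts in EC10 NKH 477-induced CRE-bla reporter activity in CHO cells. Incubation lasted 3 h at 37 °C before CCF4 substrate (2 h, room temperature) and ratiometric 460/530 nm reading.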
Turning to `CCc1nc(N)c(C#N)c(-c2ccncc2)c1C`, the half-maximal activity concentration (AC50) was 12.6 µM [rising, partial curve].

In the case of `CC(=O)N1CCC(C(=O)Nc2nc(-c3ccccc3)ns2)CC1`, the AC50 is 10 µM [rising, partial curve]. The result for `COc1ccc2[nH]c(=O)c(CN(C(=O)c3ccccn3)C3CCCCC3)cc2c1` reads 7.94 µM [rising, partial curve]; that for `CCOP(=O)(c1c(F)c(F)c(F)c(F)c1F)C(O)c1ccccc1` (centres undefined), 5.01 µM [falling, partial curve]; that for `O=C(COC(=O)c1cccc(S(=O)(=O)N2CCc3ccccc3C2)c1)NCc1ccco1`, 1.26 µM [falling, partial curve, poor fit]. Take `Cc1ccc(C(=O)NC2CCCc3ccccc32)o1` (centres undefined): the AC50 was 12.6 µM [falling, partial curve]. The result for `CCCCOc1ccccc1-c1cc(C(=O)O)[nH]n1` reads 0.126 µM [falling, partial curve, poor fit]; that for `COc1cc(C(=O)Oc2c(CN3CCOCC3)cc(Cl)c3cccnc23)cc(OC)c1OC`, 5.01 µM [rising, partial curve]. The result for `CCOc1ccc2noc3c2c1C(=O)c1ccccc1-3` reads 10 µM [rising, partial curve]. Regarding `Clc1cccc(-c2nc3nc4ccccc4nc3n2Cc2ccco2)c1`, the AC50 was 10 µM [rising, partial curve]. The result for `CC1CCC(NC(=O)CN2C(=O)C3CCCN3c3ncc(Cl)cc32)CC1` (centres undefined) reads 10 µM [rising, partial curve]. For the molecule `Cc1cc(NC(=O)CSc2nc3cc4c(cc3c(=O)n2CCc2ccccc2)OCO4)no1`, the AC50 was 12.6 µM [rising, single point].

As to `CCOc1ccccc1N1CCN(Cc2ccc(OC)c(OC)c2)CC1`, the AC50 was 0.398 µM [rising, full curve]. Regarding `COc1ccc(C(C)=O)cc1COC(=O)c1cc(C)oc1C`, the AC50 is 12.6 µM [rising, partial curve]. The result for `Nc1ncnc2c1nc(Br)n2[C@@H]1O[C@H]2COP(=O)(O)O[C@@H]2[C@H]1O` reads 25.1 µM [rising, partial curve]; that for `CC(C)OC(=O)C(C#N)c1nc2ccccc2nc1N1CCN(Cc2ccccc2)CC1` (centres undefined), 10 µM [rising, partial curve]; that for `COC(=O)c1ccc(C2C(C#N)=C(N)Oc3cc(C)n(C)c(=O)c32)cc1` (centres undefined), 15.8 µM [rising, single point]. The result for `CCN(CC)CCN(CC)Cc1ccccc1Br` reads 1.26 µM [falling, partial curve]; that for `CN1CCc2c(sc(/N=C/c3ccco3)c2C(N)=O)C1`, 10 µM [rising, single point]; that for `Cc1ccccc1-c1nc(CN2CCC(C(=O)NCCCN3CC(C)CC(C)C3)CC2)c(C)o1` (centres undefined), 3.16 µM [falling, full curve, poor fit]. The result for `Cc1ccc(Cl)cc1N1CCN(Cc2nc3c(c(=O)[nH]c(=O)n3C)n2CCc2ccccc2)CC1` reads 0.02 µM [rising, full curve]; that for `O=c1c2ccccc2nc2c3ccccc3c(N3CCOCC3)nn12`, 3.98 µM [rising, partial curve]. `CS(=O)(=O)Nc1cccc(-c2ccc3ncnc(N4CCNCC4)c3c2)c1`: the AC50 was 7.94 µM [rising, partial curve]. The result for `CC(C)Cc1cc(-c2ccco2)c(C#N)c(N)n1` reads 2 µM [rising, full curve]; that for `O=S(=O)(NCC(O)COCc1ccco1)c1cccs1` (centres undefined), 0.00316 µM [falling, full curve, poor fit]. The result for `COc1ccccc1-n1c(N)c(C(N)=O)sc1=S` reads 0.126 µM [falling, full curve]; that for `CCCOc1ccc(C2c3c(oc4ccccc4c3=O)C(=O)N2CCN(CC)CC)cc1OC` (centres undefined), 12.6 µM [rising, partial curve]; that for `CC(NC(=O)c1cc(-c2ccc(O)cc2)on1)c1ccccc1` (centres undefined), 15.8 µM [falling, partial curve]. The result for `CCN(CC)C(=O)c1c[nH]c2ccc(S(=O)(=O)Nc3cc(C)cc(C)c3)cc2c1=O` reads 31.6 µM [falling, single point]; that for `Cc1ccc(-c2csc3nc(C)n(-n4c(C)ccc4C)c(=O)c23)o1`, 5.01 µM [falling, single point]; that for `CCOC(=O)c1sc(NC(=O)CSc2nc3c(cc2C#N)CCCCCC3)c(C#N)c1C`, 0.158 µM [rising, partial curve]. As for `Cc1cc(C)c2c(N)c(C(=O)N3CCCCCC3)sc2n1`, the AC50 was 10 µM [rising, single point].

Regarding `CCN1C(=O)c2cccc3c(S(=O)(=O)Nc4ccccc4OC)ccc1c23`, the AC50 is 6.31 µM [rising, partial curve]. The result for `CN(C)c1ncc2nc(-c3ccc(F)cc3)c(=O)n(Cc3cccs3)c2n1` reads 1 µM [rising, full curve]; that for `CCCCCn1c(-c2ccco2)nc2nc3ccccc3nc21`, 12.6 µM [rising, partial curve]. The result for `COc1ccc(-c2nc(CSCC(=O)N3CCc4ccccc4C3)c(C)o2)cc1OC` reads 5.01 µM [rising, partial curve]; that for `O=C(NCc1ccco1)c1cc2nc(-c3cccs3)cc(C(F)(F)F)n2n1`, 12.6 µM [rising, partial curve]. The result for `Cc1ccccc1` reads 31.6 µM [rising, single point].

Consider `CNC(=O)c1cc2c(=O)n3cccc(C)c3nc2n1C`, for which the AC50 is 0.0158 µM [rising, partial curve, poor fit]. The result for `Cc1c(C(=O)OC(C)C)[nH]c2c1C(=O)CCC2` reads 12.6 µM [rising, single point]; that for `O=C(O)c1ccc(Cl)c(S(=O)(=O)N2CCCCCC2)c1`, 10 µM [falling, partial curve]; that for `O=C(Nc1ccc2c(c1)OCCO2)c1ccccc1F`, 0.00316 µM [falling, full curve, poor fit]. The result for `C[n+]1cccc(/C=C\c2ccc3cccc(O)c3n2)c1` reads 5.01 µM [rising, single point]. The result for `O=C(CCn1c(=O)oc2ccccc21)N1CCc2ccccc21` reads 3.16 µM [falling, partial curve].
